According to publication PMC1849891:
Results are given in words; binding and its absence hold for the method and conditions named. In cells and extracts the contact can be indirect. These calls come from enrichment with a bait or labelling near it, and not all partners need be listed. For some of these results: A no says only that the protein was not detected with the bait. Tags and fused reporters may be left off the sequences shown. Blank lines part the entries; values can stand above or below the molecule they belong to.

The chains behind the UniProt entries cited, without tags or fusion partners.
UniProt Q9US25: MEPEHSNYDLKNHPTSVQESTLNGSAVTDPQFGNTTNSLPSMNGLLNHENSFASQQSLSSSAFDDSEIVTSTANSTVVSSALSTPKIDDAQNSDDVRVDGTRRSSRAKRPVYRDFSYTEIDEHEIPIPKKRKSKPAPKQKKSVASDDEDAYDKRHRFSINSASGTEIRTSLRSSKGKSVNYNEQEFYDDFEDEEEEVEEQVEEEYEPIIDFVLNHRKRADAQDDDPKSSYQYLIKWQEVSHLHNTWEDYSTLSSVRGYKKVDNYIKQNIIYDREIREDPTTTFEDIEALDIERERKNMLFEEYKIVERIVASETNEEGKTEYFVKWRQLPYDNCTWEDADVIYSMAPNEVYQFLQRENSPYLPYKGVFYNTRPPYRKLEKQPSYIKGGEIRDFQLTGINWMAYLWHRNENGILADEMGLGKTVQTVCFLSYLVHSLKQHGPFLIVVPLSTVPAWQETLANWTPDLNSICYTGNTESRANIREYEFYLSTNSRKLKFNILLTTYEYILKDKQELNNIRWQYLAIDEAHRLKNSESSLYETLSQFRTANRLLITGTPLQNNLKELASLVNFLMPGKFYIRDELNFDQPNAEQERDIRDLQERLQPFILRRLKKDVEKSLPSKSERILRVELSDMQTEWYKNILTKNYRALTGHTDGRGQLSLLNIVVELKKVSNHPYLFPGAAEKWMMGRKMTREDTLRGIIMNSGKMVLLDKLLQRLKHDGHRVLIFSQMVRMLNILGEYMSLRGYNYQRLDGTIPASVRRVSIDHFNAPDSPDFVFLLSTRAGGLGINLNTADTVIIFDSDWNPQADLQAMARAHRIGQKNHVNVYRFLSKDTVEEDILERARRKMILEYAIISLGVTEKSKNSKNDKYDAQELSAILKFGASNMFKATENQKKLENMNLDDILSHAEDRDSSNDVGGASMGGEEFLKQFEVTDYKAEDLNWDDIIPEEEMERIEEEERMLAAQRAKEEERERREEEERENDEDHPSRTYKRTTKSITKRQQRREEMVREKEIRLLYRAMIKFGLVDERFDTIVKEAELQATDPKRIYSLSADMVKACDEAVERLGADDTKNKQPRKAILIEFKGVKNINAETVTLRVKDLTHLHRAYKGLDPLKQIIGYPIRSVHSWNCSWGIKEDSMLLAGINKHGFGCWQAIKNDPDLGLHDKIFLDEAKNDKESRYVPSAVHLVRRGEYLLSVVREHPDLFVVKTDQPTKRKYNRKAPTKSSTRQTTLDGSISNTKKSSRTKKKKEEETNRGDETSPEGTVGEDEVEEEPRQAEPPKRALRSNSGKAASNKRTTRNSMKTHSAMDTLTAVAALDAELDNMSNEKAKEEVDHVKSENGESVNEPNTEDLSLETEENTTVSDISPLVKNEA

Assays:
Assay in all cases: affinity purification with mass spectrometry; TAP purification from S. pombe soluble extract (20 mM HEPES pH 8.0, 150 mM NaCl, 0.1% Tween 20): IgG beads, TEV cut, calmodulin-binding beads, EGTA elution; eluate digested with trypsin and peptides identified by MS
[1] = biological target: T1, C-terminally TAP-tagged Swm1 (S. pombe) (UniProt Q9Y802)
T1 sequence: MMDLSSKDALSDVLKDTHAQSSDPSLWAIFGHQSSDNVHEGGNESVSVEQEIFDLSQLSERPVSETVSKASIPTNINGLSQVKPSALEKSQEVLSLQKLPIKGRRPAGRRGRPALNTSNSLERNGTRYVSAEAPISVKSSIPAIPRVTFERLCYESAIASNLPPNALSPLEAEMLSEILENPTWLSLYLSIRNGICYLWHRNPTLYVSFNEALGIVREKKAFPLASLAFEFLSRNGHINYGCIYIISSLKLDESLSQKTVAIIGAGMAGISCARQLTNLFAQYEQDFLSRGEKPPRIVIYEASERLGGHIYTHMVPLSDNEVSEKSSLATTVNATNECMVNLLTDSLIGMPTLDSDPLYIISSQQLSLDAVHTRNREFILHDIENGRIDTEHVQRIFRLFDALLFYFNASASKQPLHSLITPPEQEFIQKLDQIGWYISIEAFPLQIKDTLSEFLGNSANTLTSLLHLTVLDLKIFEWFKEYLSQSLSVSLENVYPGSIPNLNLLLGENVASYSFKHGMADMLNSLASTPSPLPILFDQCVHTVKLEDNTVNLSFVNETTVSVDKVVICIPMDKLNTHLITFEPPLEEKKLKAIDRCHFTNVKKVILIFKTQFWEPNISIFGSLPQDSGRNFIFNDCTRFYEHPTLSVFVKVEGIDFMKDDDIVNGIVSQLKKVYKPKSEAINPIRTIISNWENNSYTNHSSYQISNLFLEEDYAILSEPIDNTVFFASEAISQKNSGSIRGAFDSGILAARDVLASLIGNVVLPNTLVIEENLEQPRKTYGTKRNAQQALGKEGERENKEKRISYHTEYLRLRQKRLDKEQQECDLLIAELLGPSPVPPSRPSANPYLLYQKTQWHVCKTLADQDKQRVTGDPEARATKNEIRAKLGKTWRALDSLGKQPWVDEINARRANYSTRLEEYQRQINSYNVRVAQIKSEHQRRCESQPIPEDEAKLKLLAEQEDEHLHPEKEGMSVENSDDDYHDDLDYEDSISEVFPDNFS

[2] = biological target: T2, C-terminally TAP-tagged Swm2 (S. pombe) (UniProt Q10135)
T2 sequence: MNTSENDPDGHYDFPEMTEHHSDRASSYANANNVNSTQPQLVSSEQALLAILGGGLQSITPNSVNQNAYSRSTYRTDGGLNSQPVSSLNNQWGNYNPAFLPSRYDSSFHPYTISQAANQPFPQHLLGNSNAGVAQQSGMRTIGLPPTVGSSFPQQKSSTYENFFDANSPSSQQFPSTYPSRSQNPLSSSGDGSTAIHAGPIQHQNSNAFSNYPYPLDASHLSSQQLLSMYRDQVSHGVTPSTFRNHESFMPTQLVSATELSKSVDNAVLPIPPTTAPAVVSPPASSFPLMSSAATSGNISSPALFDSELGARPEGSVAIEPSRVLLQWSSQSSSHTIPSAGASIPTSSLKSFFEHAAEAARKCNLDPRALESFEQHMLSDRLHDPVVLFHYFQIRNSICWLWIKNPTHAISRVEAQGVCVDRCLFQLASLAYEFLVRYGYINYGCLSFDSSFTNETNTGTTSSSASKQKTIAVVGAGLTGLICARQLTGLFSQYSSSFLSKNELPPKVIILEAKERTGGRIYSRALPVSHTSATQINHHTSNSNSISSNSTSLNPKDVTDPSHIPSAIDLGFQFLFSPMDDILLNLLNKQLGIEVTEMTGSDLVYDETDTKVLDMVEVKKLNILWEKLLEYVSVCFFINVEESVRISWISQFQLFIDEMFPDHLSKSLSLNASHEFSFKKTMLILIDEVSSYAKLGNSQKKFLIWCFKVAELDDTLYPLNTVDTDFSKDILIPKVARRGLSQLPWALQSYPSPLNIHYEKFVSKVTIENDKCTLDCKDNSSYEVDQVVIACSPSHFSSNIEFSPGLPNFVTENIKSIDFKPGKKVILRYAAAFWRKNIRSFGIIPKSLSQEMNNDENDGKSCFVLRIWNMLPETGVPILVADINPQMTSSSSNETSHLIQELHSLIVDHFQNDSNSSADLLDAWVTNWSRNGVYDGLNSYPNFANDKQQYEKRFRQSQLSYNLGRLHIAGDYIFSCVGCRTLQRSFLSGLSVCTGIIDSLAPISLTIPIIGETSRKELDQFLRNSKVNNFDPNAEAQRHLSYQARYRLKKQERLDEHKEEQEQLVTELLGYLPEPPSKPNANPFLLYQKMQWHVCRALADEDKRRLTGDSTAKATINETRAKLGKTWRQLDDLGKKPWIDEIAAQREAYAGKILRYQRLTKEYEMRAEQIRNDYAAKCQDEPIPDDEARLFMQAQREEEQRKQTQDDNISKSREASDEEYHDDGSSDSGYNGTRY

[3] = biological target: T3, C-terminally TAP-tagged Swm2 (S. pombe), Q10135; conditions: remark: other sources report otherwise
T3 chain: T2 sequence

[4] = biological target: T4, C-terminally TAP-tagged Swm1 (S. pombe), Q9Y802; conditions: remark: other sources report otherwise
T4 chain: T1 sequence

binding [1]: no binding
binding [2]: no binding
Molecule: Hrp1 (from UniProt Q9US25 1-1373)

binding [1]: no binding
binding [2]: no binding
Molecule: SPBPJ758.01 (an RNA recognition motif protein) (S. pombe)

binding [1]: binds
binding [2]: no binding
B1: Swp2 (Swm associated PHD2) (protein, UniProt Q09908 1-538)
chain: MPNSSYYDDDGGSFEAASYPFQFDGSRRFPNDLHPTMFEGEESNQNGGSVLIDQAFQDIQNPNVNSNMHLENQFQHFHEPNKESGAFGSYKNDDVAKEIESSKNQETDAKSEQAPFTEDASSSNYAHHRSADSQTKSALPPNVPASSSPLPPMSIAMNIARKRSWPASLAIERDNTADALFSTEDGREEQFNLEGVKTKSGRKVHRPNHFDPLVKLPTRRRGPGRRPVVALAMKCSVCQRLQSPPKNRIVFCDGCNTPFHQLCHEPYISDELLDSPNGEWFCDDCIRRKKQAPLVTGTTARELNLSSEEKKSYLLSLPISQLVDILLFCEQLHPDIPFYSPKTSTIVQELQSKRSAFTATMNEPVTGDQYLSLNNGTESQSKTTKHSTSLPSTEPVEVDKQYMESEKIPTIDEYLQEYSNEDEIVLQVLESFPAAVSFSTITNTIQAKYSNRKIKNSNITRSLNRLVRKNRVLRDARGSSYELNRTFDADRPSVRPDISITGPIPIDWMLYTPHTEDLTENFCTYYMFDETPIVLSSI

binding [3]: binds
B2: Swm1, Q9Y802 1-1000 (protein)
chain: T1 sequence

binding [4]: binds
B3: Swm2, Q10135 1-1235 (protein)
chain: T2 sequence

binding [1]: binds
binding [2]: binds
B4: Swp1 (Swm associated PHD1) (protein, UniProt P87233 1-461)
chain: MSQKNFFDEGKSYGVNDYAGFHFENGADSSLPQVSAQGVVRETDSSNFDASPVASGSGISDVGPFGADFHQLQQHVQTPYGGMTMPASSSSGATSVPPEQDPSLSVSFNRLPKSASTKTKNGRIRSSRREDDNRIPFYDLDVAEGAEDDLQEDFHVEGMKTKSGRKIQRPVAYNPNATALKRKSRKVDMVTLCSVCQRGHSPLSNRIVFCDGCNSPYHQLCHHPPIDDATVQDVDAEWFCMKCQYRRAKQPLETGMTAQDLGLSESDKKMYLSSLPTPHLADLILFCEKSYPSLPIYNPRTRELLGEIRHQLLVSSERQQISLQERLHAKQDEAPSDEPAPVPYTASYVANSGTLYDYPTLIRLAIRNTLSPSKDEIFNWLAQNVPLLPTFHDSASEAIRWMVNKGQLVRSGSIYQIATVEEYPHLQPSLLPTFQRNRKVPKLVPVSFPTDDPQNLCATVL
